Measured values as given in US20240247058A1 (published 2024).
These are yes or no findings as the source states them, for the method shown. Some results given as binding are weak or reduced against the parent protein; the word gives no strength.

Target: T1, Mouse TNFα (mouse, UniProt P06804 80-235)
T1 sequence (looked up): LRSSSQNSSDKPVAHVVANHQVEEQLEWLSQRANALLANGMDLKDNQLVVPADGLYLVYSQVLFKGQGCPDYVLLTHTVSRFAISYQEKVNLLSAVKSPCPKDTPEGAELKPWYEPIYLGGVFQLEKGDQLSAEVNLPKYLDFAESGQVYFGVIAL
Assay: cross-reactivity binding profile against human and mouse TNF-alpha (FIGS. 39A-C; text cites FIG. 31)

B1: TNF S17-Quad-X™ with (Gly4Ser)5 (Fc fusion)
chain: ASVNQTPRTATKETGESLTINCVLTDTHAKVFTTSWFRKNPGTTDWERMSIGGRYVESVNKGAKSFSLRIKDLTVADSATYICRAGGYLSQPRVYWDVYGAGTVLTVNGGGGSGGGGRTEPRGPTIKPCPPCKCPAPNLLGGPSVFIFPPKIKDVLMISLSPIVTCVVVDVSEDDPDVQISWFVNNVEVHTAQTQTHREDYNSTLRVVSALPIQHQDWMSGKEFKCKVNNKDLPAPIERTISKPKGSVRAPQVYVLPPPEEEMTKKQVTLTCMVTDFMPEDIYVEWTNNGKTELNYKNTEPVLDSDGSYFMYSKLRVEKKNWVERNSYSCSVVHEGLHNHHTTKSFSRTPGKGGGGSGGGGSGGGGSGGGGSGAHSASVNQTPRTATKETGESLTINCVLTDTHAKVFTTSWFRKNPGTTDWERMSIGGRYVESVNKGAKSFSLRIKDLTVADSATYICRAGGYLSQPRVYWDVYGAGTVLTVN
  binding: binds
